Test results taken from paper doi:10.1101/2022.01.03.474851.
These are yes or no findings as the source states them, for the method shown. Some entries that bind do so weakly or less than the wild type.

Amino acid sequences for entries named in this document (tags omitted).
UniProt P48112: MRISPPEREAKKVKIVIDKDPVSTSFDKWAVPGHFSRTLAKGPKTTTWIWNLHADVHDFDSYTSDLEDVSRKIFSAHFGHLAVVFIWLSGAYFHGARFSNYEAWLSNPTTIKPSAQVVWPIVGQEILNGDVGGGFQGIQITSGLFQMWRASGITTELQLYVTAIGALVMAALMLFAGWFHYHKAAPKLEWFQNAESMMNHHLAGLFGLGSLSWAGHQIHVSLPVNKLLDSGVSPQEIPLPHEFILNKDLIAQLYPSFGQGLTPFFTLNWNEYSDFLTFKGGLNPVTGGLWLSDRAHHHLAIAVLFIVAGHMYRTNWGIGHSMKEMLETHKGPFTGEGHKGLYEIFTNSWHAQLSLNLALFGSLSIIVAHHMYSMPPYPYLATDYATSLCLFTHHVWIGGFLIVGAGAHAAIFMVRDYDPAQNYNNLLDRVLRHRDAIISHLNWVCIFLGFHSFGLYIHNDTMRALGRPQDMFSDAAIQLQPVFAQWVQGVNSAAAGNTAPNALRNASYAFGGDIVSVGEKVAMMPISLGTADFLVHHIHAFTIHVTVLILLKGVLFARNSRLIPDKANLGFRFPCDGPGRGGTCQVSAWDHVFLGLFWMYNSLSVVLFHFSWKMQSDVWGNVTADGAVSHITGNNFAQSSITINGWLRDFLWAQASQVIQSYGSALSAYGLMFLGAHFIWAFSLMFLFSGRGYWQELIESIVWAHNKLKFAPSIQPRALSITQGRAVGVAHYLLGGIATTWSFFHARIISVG

Target: PsaA (photosystem I subunit, gene product of psaA1) (Cyanophora paradoxa (endogenous, strain NIES-547)) (UniProt P48112)
Experiment: cryo-EM structure

- binding: binds
Substance: PsaA (photosystem I subunit, gene product of psaA1) (from UniProt P48112 1-752)
